Laboratory results as given in PubChem BioAssay AID540275 (National Center for Advancing Translational Sciences (NCATS), 2011).
Among all 320,000 compounds or so, about 620 (0.19%) were called active. This list was built around the results that the source calls inconclusive (neither active nor inactive); the mix of calls is not that of the screen. Rule as the data show it: active = activation above about 80%; inconclusive = between about 30% and that limit; inactive = weaker than that.

Sequences of proteins named here, by UniProt entry; tags and fusion partners are left off.
UniProt Q8NER1, whole entry, looked up: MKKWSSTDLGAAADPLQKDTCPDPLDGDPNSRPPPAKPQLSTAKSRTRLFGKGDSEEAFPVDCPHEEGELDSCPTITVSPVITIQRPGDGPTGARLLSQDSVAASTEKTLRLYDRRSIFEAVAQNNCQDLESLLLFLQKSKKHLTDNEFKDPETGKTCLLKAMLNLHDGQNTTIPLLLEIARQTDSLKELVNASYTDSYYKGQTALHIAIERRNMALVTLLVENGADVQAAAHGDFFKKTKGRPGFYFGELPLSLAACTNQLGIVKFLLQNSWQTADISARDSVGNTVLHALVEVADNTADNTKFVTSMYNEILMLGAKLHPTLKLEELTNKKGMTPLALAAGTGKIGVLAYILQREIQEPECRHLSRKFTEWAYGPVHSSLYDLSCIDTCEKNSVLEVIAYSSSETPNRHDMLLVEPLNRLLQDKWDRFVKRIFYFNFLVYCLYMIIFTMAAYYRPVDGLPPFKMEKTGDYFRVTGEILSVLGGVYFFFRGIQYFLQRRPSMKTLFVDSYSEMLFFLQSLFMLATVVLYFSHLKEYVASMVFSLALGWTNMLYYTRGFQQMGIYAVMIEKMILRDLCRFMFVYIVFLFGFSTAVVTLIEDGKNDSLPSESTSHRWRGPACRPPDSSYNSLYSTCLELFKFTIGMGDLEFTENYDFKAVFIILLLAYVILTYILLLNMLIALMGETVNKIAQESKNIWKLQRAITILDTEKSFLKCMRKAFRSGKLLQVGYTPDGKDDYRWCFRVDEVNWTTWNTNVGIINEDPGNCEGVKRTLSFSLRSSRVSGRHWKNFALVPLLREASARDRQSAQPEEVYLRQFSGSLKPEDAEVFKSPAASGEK

biological target: Transient receptor potential cation channel subfamily V member 1 (Homo sapiens) (UniProt Q8NER1); assay: HTS Assay for Compounds that Act as Agonists of the Vanilloid Receptor 1; details: TRPV1-expressing cells, Fluo-8 calcium influx, agonist mode; at 8.33 µM, active compounds read high; also: 0% is about no effect
In short: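 Fluo-8 calcium influx in TRPV1-expressing cells, kinetic read (ex 480/em 520 nm). Compound added and read 3 min for agonist activity, followed by capsaicin at EC20 final and 2 min further read for enhancement.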

| SMILES | activation |
| --- | --- |
| O=C(Nc1ccncc1)Nc1cccc(F)c1 | inconclusive: 51.2% |
| CC(C)c1nc(N2CCN(C(=O)c3ccco3)CC2)c(C#N)c2c1COC(C)(C)C2 | inconclusive: 50.7% |
| COc1ccccc1C(=O)Nc1cccc(NC(C)=O)c1 | inactive: -2.56% |
| O=C(NCCN1CCOCC1)c1cc(-c2cccc(Cl)c2)on1 | inactive: -0.265% |
| NC(=O)c1ccccc1OCC(=O)N1CCC(Cc2ccccc2)CC1 | inconclusive: 64.3% |
| O=C(Nc1cc(NC(=O)c2ccccc2F)ccc1Cl)c1ccccc1 | inconclusive: 36.2% |
| COC(=O)c1ccc(NC(=S)NC2CCCCC2C)cc1 (stereo not given) | inconclusive: 35.2% |
| Cc1cccc(Nc2ncnc3nc[nH]c23)c1 | inconclusive: 33.9% |
| Cc1cc(NC(=O)CN(C)CC(=O)Nc2ccc(Cl)c(C(F)(F)F)c2)no1 | inconclusive: 49.6% |
| COc1ccc(COc2cc(-c3cccc(OC)c3)nc3ccc(NC(=O)c4ccc(Cl)cc4)cc23)cc1 | inactive: 0.776% |
| COc1ccc(Cc2noc(-c3ccc(C)cc3)n2)cc1 | inconclusive: 38.7% |
| CCN(c1ccccc1)S(=O)(=O)c1cccc(C(=O)Nc2ccc(C)cn2)c1 | inconclusive: 58.1% |
| CC1(C)Nc2ccccc2C(=O)N1NS(=O)(=O)c1ccccc1 | inactive: -1.84% |
| CCCc1cc(=O)oc2c3c(ccc12)OCN(Cc1ccc(OC)cc1)C3 | inconclusive: 62.4% |
| O=C(O)c1cccc(-n2sc3ccccc3c2=O)c1 | inactive: -3.04% |
| COC(=O)c1ccc2c(=O)n(CCCCCC(=O)N3CCN(c4ccccc4)CC3)c(=O)[nH]c2c1 | inactive: 13.1% |
| COCCN(C(=O)COC(=O)Cc1ccc(Cl)cc1Cl)c1c(N)n(Cc2ccccc2)c(=O)[nH]c1=O | inactive: -2.88% |
| Cc1ccc(OCCCC(=O)Nc2nccs2)cc1 | inconclusive: 39.4% |
| CCCSc1nnc(CSc2nc3ccccc3s2)n1-c1ccccc1 | inconclusive: 41.2% |
| O=C(NN=C(Cc1ccccc1)Cc1ccccc1)c1ccc(F)cc1 | inconclusive: 48.3% |
| CCOc1ccc(C2/C(=C(/O)c3ccc(Cl)cc3)C(=O)C(=O)N2CCCN(C)C)cc1OC (stereo not given) | inactive: -5.66% |
| O=C(CN1CCN(C(=O)c2cccc(-n3cnnn3)c2)CC1)Nc1ccccc1Cl | inactive: -2.92% |
| CCOC(=O)C1=NN(c2ccc(C)cc2)CC1C(=O)OC (stereo not given) | inconclusive: 37.9% |

For reference, some entries already given:

| SMILES | activation |
| --- | --- |
| CC1(C)Nc2ccccc2C(=O)N1NS(=O)(=O)c1ccccc1 | inactive: -1.84% |
| CCCc1cc(=O)oc2c3c(ccc12)OCN(Cc1ccc(OC)cc1)C3 | inconclusive: 62.4% |
| O=C(O)c1cccc(-n2sc3ccccc3c2=O)c1 | inactive: -3.04% |
| COC(=O)c1ccc2c(=O)n(CCCCCC(=O)N3CCN(c4ccccc4)CC3)c(=O)[nH]c2c1 | inactive: 13.1% |

Rewritten field by field: two of the compounds above.
Cc1cc(NC(=O)CN(C)CC(=O)Nc2ccc(Cl)c(C(F)(F)F)c2)no1
  activation: inconclusive: 49.6%
CCOC(=O)C1=NN(c2ccc(C)cc2)CC1C(=O)OC (stereo not given)
  activation: inconclusive: 37.9%

The list goes on:

| SMILES | activation |
| --- | --- |
| O=C(Nc1ccc(SC(F)F)cc1)C1=COCCO1 | inconclusive: 79.1% |
| Cc1cc(C(=O)N2CCN(c3ccc(F)cc3)CC2)on1 | inactive: 25.1% |
| COc1ccccc1-c1noc(-c2ccccc2C(=O)Nc2cccnc2)n1 | inconclusive: 36.6% |
| O=C(c1cc(-c2ccc(Cl)cc2)on1)N1CCc2ccccc2C1 | inconclusive: 32.7% |
| NNC(=O)c1ccc(Oc2cc(Cl)cc(Cl)c2)o1 | inconclusive: 51% |
| O=C(CSc1nnc(Cn2c(=O)sc3ccccc32)n1CCc1ccccc1)N1CCOCC1 | inconclusive: 37% |
| O=C(Nc1ccc(S(=O)(=O)N2CCOCC2)cc1)c1cccs1 | inconclusive: 52.1% |
| COc1ccc(CCN=c2c([N+](=O)[O-])nn(-c3cccc(C)c3)n2O)cc1OC | inactive: 3.18% |
| O=C(NCc1ccccc1)C1CCN(S(=O)(=O)c2ccc(N3CCCC3=O)cc2)CC1 | inactive: 4.92% |
| Cc1nnc(SCC(=O)N2c3ccccc3C(C)(c3ccccc3)CC2(C)C)s1 (stereo not given) | inconclusive: 54% |
| CCc1cc(=O)oc2c(C)c(OC(C)C(=O)NCC3CCC(C(=O)O)CC3)ccc12 (stereo not given) | inactive: -2.44% |
| CC(Oc1ccc(Cl)cc1Cl)C(=O)Nc1ccncc1 (stereo not given) | inconclusive: 54.4% |
| O=C(CCSCc1ccccc1Cl)NC1CCCCC1 | inconclusive: 42.6% |
| CCOc1ccc(N=c2scc(-c3ccc(OC)cc3)n2CCO)cc1 | inactive: -3.61% |
| O=C1C2C3C=CC(C3)C2C(=O)N1c1cccc2ccccc12 (stereo not given) | inactive: -0.165% |
| O=C(c1ccoc1)N1CCCC(Nc2ccc(F)c(F)c2)C1 (stereo not given) | inconclusive: 36.1% |
| CC(=N\NC(=O)c1ccccc1)/C(=N/O)C(=O)Nc1ccccc1 | inactive: -1% |
| COc1cccc(NC(=O)CSc2nc(=O)n(Cc3ccncc3)c3c2CCCC3)c1 | inactive: -2.59% |
| CCc1c(C(=O)N/N=C/c2ccc(C)o2)csc1C | inconclusive: 42.5% |
| COc1ccc([C@H]2CC(=O)C=C(c3ccccc3OC)C2)cc1OC | inactive: 9.33% |
| c1ccc(-c2cc(CSc3nc4ccccc4[nH]3)on2)cc1 | inactive: 13.8% |
| O=C(CCSCc1ccc(Cl)cc1)NCc1cccnc1 | active: 80.5% |
| O=C(NNC(=O)c1nc(Cl)ccc1Cl)c1ccc(F)cc1 | inactive: 0.407% |

| SMILES | activation |
| --- | --- |
| COc1cccc(OCc2cc(C(=O)NCCN3CCCCC3CO)no2)c1 (stereo not given) | inactive: -2.92% |
| C/C(=N\OCC(=O)NC12CC3CC(CC(C3)C1)C2)c1cc2ccccc2o1 | inconclusive: 44.5% |
| O=C(NCC(c1ccco1)N1CCc2ccccc21)C(=O)Nc1ccc(F)cc1F (stereo not given) | inconclusive: 38.2% |
| COc1cccc(C(=O)Nc2ccc(C(=O)c3ccncc3)cc2)c1 | inconclusive: 36.2% |
| COCCNC(=O)c1cc2c(s1)-c1ccc(Cl)cc1SC2 | inconclusive: 32.8% |
| Cc1ccc(C(=O)Nc2ccc(S(=O)(=O)N3CCCC3)cc2)o1 | inconclusive: 59.5% |
| Nc1nc(SCC(=O)NCCC(c2ccccc2)c2ccccc2)n[nH]1 | inconclusive: 35.2% |
| Cc1ccc(Cn2nc(C)c(NC(=O)CCCn3nc([N+](=O)[O-])c(Cl)c3C)c2C)cc1 | inconclusive: 42.3% |
| Cc1cccc(N(C)C(=O)c2cc(S(=O)(=O)N3CCCCC3)c[nH]2)c1 | inconclusive: 41.2% |
| O=C(Nc1nc(-c2ccccn2)cs1)c1ccc(Br)s1 | inconclusive: 42.2% |
| CCN1C(=O)[C@H]2[C@@H](c3ccc(-c4cccc(Cl)c4)cc3)N[C@@](C)(C(=O)OC)[C@H]2C1=O | inactive: 0.419% |
| Cc1cc(N2C(=O)C(O)=C(C(=O)c3cccs3)C2c2ccccc2)no1 (stereo not given) | inactive: 0.492% |
| CC(C)OC(=O)C(C#N)c1nc2ccccc2nc1N1CCCC1 (stereo not given) | inconclusive: 52.7% |
| O=C(NC1CCCCC1)C(c1ccco1)N(C(=O)c1csnn1)c1cccc(Cl)c1 (stereo not given) | inconclusive: 43.1% |
| COc1ccc(C)cc1NC(=O)C(OC(=O)CNC(=O)c1cccc(F)c1)c1ccccc1 (stereo not given) | inconclusive: 37.5% |
| COCCNC(=S)N/N=C(\C)c1cccc(C(F)(F)F)c1 | inconclusive: 30.5% |
| Cn1cccc1/C=C1\CCC/C(=C\c2cccn2C)C1=O | inconclusive: 46.9% |
| Cc1ccc(NC(=O)COc2ccc(Br)cc2CO)cc1 | inconclusive: 43.4% |
| Cc1cc(C(=O)Nc2ccc(S(=O)(=O)N3CCCC3)cc2)no1 | inconclusive: 37.2% |
| CCN1C(=O)/C(=C\C=C2/C=CC=CN2CC)SC1=S | inactive: -0.193% |
| CCOC(=O)N1CCN(C(=O)CSCC(=O)Nc2nc(-c3ccc(C)cc3)cs2)CC1 | inactive: -0.81% |
| COc1ccc(C(=O)Nc2ccc(C3CC3(Cl)Cl)cc2)cc1 (stereo not given) | inconclusive: 59% |
| CC(NS(=O)(=O)c1ccc(OCC(=O)N2CCOCC2)c(Cl)c1)c1ccccc1 (stereo not given) | inconclusive: 33.4% |

| SMILES | activation |
| --- | --- |
| Cc1[nH]nc2c1C(c1ccsc1C)C(C#N)=C(N)O2 (stereo not given) | inactive: -4.46% |
| CC(=O)c1ccc(NC(=S)NC2CCCC(C)C2C)cc1 (stereo not given) | inconclusive: 44.2% |
| CC(=O)Nc1cccc(NC(=O)c2ccc3c(c2)CCN3S(=O)(=O)c2ccccc2)c1 | inconclusive: 42% |
| CCCSc1ccc(C(=O)Nc2ccc(Cl)cc2)cn1 | inconclusive: 78.3% |
| Cn1cc(C(=O)NCC2COc3ccccc3O2)c(=O)c2cc(S(=O)(=O)N3CCCCC3)ccc21 (stereo not given) | inactive: -1.02% |
| CC1=NN2C(=N)/C(=C\c3cc(C)n(Cc4ccccc4)c3C)C(=O)N=C2S1 | inconclusive: 60.6% |
| CC(C)c1ccc(C(=O)Nc2nnc(S(=O)(=O)N3CCCCC3)s2)cc1 | inconclusive: 59.2% |
| C/C(=N\NC(=O)c1nnn(-c2nonc2N)c1CN(C)c1ccccc1)c1ccccc1O | inactive: -1.26% |
| COc1ccc(CNC(=O)CCCSc2ccccc2)cc1 | inconclusive: 42.6% |
| Cc1[nH]c2ccccc2c1/C=N/NC(=S)NCc1ccccc1 | inactive: 4.57% |
| Cc1ccc(OCCC(=O)OC(C)C(=O)Nc2ccc(Cl)cn2)cc1 (stereo not given) | inactive: 14.7% |
| O=C(CN1CCCCCC1)Nc1ccccc1C(=O)Nc1ccccc1 | inconclusive: 77.2% |
| CS(=O)(=O)Nc1ccc(C(=O)Nc2ccc(S(=O)(=O)N3CCCCC3)cc2)cc1 | inconclusive: 51.7% |
| O=C(N/N=C/c1cccs1)c1ccc(-n2cccc2)cc1 | inconclusive: 62.6% |
| NC(=O)Cn1c(-c2nonc2N)nc2ccccc21 | inconclusive: 65% |
| Cc1ccc2nc(-c3ccc(-c4cccc(Cl)c4)cc3)c(NCc3ccccc3)n2c1 | inconclusive: 63.7% |
| N=c1c(-c2nc3ccccc3[nH]2)cc(C(=O)c2ccco2)nn1-c1ccccc1 | inactive: 26.3% |
| CCc1nc(Nc2cccc(OC)c2)c2oc3ccccc3c2n1 | active: 81.4% |
| Cc1ccc(SCCC(=O)N/N=C/c2ccccc2O)cc1 | inconclusive: 30.2% |
| O=C(NCc1ccccc1)C1CCCN(S(=O)(=O)c2ccc(F)cc2)C1 (stereo not given) | inactive: 4.61% |
| COc1ccccc1CNC(=O)C1CCCC1 | inactive: 2.11% |
